# Experimental data taken from PubChem BioAssay AID2417 (National Center for Advancing Translational Sciences (NCATS), 2010).
# The whole screen tested about 140,000 compounds, of which about 4,300 (3.1%) were called active. The inconclusive results got no clear call from the source; some entries with a clear call stand among them for comparison.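 How the source made its calls: active means readout at or below -70, meaning at least 70% loss of cells showing the perinucleolar compartment, a nuclear body marking cancer cells; inconclusive means readout between -30 and a set limit; inactive means the rest.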
# Experiment: High Content Assay for Compounds that inhibit the Assembly of the Perinucleolar Compartment;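 further: plate controls were DMSO wells for no effect and camptothecin positive control wells for full effect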
# Settings: PC3M PTB-GFP, PNC prevalence imaging, 16 h; at 10 µM; hits give low values
# Procedure, shortened: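 Read-out is percentage of cells bearing a perinucleolar compartment, from automated 20x imaging of fixed, Hoechst-stained PC3M PTB-GFP cells. Cells were seeded 4 h, then exposed 16 h to compound (23 nl of library stock) in duplicate plates.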
row,SMILES,"activity change (PNC), negative = inhibition"
1,CC(C)C[C@@H]1NC(=O)[C@H](CO)NC(=O)c2cc([N+](=O)[O-])cc(I)c2OCC[C@@H](C(N)=O)NC1=O,inactive: 28.4%
2,OC(COc1c(Br)cc(Br)cc1Br)CN1CCOCC1 (stereo not given),inconclusive: -35.1%
3,CCOC(=O)Cc1nnc(NC(=O)CSc2ccccc2)s1,inconclusive: -43.1%
4,COC(=O)Cn1nc(C)c2ccccc2c1=O,inconclusive: -41%
5,Cc1cc(C)nc(NN=C(c2ccccc2)c2ccccc2)n1,inactive: 41.3%
6,Nn1c(Cc2cccc3ccccc23)nnc1SCn1nnc2ccccc2c1=O,inconclusive: -58.4%
7,Cc1ccc(S(=O)(=O)c2cc3c(=O)n4cccc(C)c4nc3n(CC3CCCO3)c2=N)cc1 (stereo not given),inconclusive: -30.4%
8,CC1=CC2=NCC(O)CN2C=C1 (stereo not given),inactive: 61.6%
9,CCOc1ccc(C2C(C(=O)c3ccco3)=C(O)C(=O)N2CCN(C)C)cc1 (stereo not given),inactive: -28.5%
10,CCOC(=O)c1cccnc1SC(CC)C(=O)NCc1ccco1 (stereo not given),inconclusive: -67.3%
11,CCc1ccc(/C=N/NC(=O)c2cc(C3CC3)nc3ccccc23)s1,inconclusive: -61.1%
12,Cc1cc(N2CCN(c3ccccc3)CC2)nc(-c2ccccc2O)n1,inconclusive: -49.7%
13,O=C(C(Cc1ccccc1)n1cccc1)N1CCCCC1 (stereo not given),inconclusive: -43.2%
14,COC(=O)Cc1[nH]nc2c1C(c1c[nH]c3ccccc13)C(C#N)=C(N)O2 (stereo not given),inconclusive: -35.8%
15,O=C(CSc1nnc(-c2ccncc2)n1-c1ccc(Cl)cc1)N1CCOCC1,inconclusive: -60.4%
16,COc1cccc(C(c2nnnn2CCc2ccccc2)N2CCN(c3ccccc3)CC2)c1OC (stereo not given),inconclusive: -53.5%
17,CCCCn1nc2cc(C(=O)NCc3ccc(OC(F)(F)F)cc3)ccc2c1OC,inactive: 109%
18,COc1ccc2cc3cc(C(=O)NC(C)C)oc3nc2c1,inconclusive: -54.1%
19,CCOC(=O)c1[nH]c2ccc(Br)cc2c1NC(=O)CCN1CCCCC1,inconclusive: -77.8%
20,O=C(NC(=S)NCCN1CCOCC1)c1ccc(Cl)cc1Cl,inactive: 17.1%
21,CCCCc1nc2ccccc2c(NC(=O)CN2CCCC2)c1CCC,active: -100%
22,Cc1ccc2[nH]c3c(c2c1)CN(C(=O)CN1CC(C)OC(C)C1)CC3 (stereo not given),inconclusive: -70%
23,COc1ccc(S(=O)(=O)N2CCC(c3cc(-c4cccc5ccccc45)n[nH]3)CC2)cc1,inactive: 13.1%

# Pulled by compound from the entries so far, two records:
row,SMILES,"activity change (PNC), negative = inhibition"
11,CCc1ccc(/C=N/NC(=O)c2cc(C3CC3)nc3ccccc23)s1,inconclusive: -61.1%
22,Cc1ccc2[nH]c3c(c2c1)CN(C(=O)CN1CC(C)OC(C)C1)CC3 (stereo not given),inconclusive: -70%

# Going on with the list.

row,SMILES,"activity change (PNC), negative = inhibition"
1,CCOC(=O)c1cccc(NC(=O)CSc2nc3ccccc3c(=O)n2CC)c1,active: -93.6%
2,O=C(Nc1ccc(OC(F)F)c(Cl)c1)C(c1ccccc1)c1ccccc1,inconclusive: -32.3%
3,COCCNC(C(=O)Nc1cc(Cl)cc(Cl)c1)c1ccccc1 (stereo not given),inactive: -8.89%
4,CC(=O)N1CCN(C(=O)CCc2nc3ccccc3c(=O)[nH]2)CC1,inactive: 22.3%
5,COC(=O)c1c(NC(=O)C2CCC2)sc(C(=O)N(C)C)c1C,inconclusive: -41.6%
6,Cc1ccc(S(=O)(=O)N(CCC(=O)O)c2ccccc2)cc1,inconclusive: -60.3%
7,COc1ccc(/C=N/NC(=O)CC(=O)NCCc2ccccc2)cc1OC,inconclusive: -35.2%
8,O=C(CCn1cccc1)NCc1ccccc1,inactive: -12%
9,O=C(Nc1nc(-c2ccc(F)cc2)cs1)C1CCCO1 (stereo not given),inconclusive: -55.1%
10,Cc1cc2nncn2c(Cc2ccccc2)n1,inactive: 20.8%
11,CC(=NC1CCCC1)c1c(C)[nH]n(-c2nc3ccccc3s2)c1=O,inactive: -0.393%
12,CCCC1CCC(C(=O)Nn2c(C)nc3ccccc3c2=O)CC1 (stereo not given),inconclusive: -35.8%
13,Cc1ccccc1NC(=O)/C=C/c1ccc([N+](=O)[O-])s1,inconclusive: -39.2%
14,O=C1CC2(CCCCC2)Oc2ccc(O)cc21,inconclusive: -34.9%
15,O=C(O)CC(c1ccc(Cl)cc1)n1cccc1 (stereo not given),inactive: 36.7%
16,CC(C)(C)NC(=O)CSc1nnc(-c2ccncc2)n1Cc1ccccc1,inconclusive: -36.6%
17,Cc1cc2c(OCC(O)CNC(C)(C)C)cccc2[nH]1 (stereo not given),inconclusive: -31.9%
18,CCCCNC(=S)N(C)/N=C/c1ccc(OCc2ccc(C(=O)OC)cc2)c(OC)c1,inconclusive: -53.6%
19,O=[N+]([O-])c1ccc(Nc2ccc3ccccc3c2)nc1,inactive: 45.9%
20,Cc1cccc(OCCn2cc(/C=N/NC(=O)c3ccncc3)c3ccccc32)c1,inconclusive: -46.2%
21,CCN(CC)S(=O)(=O)c1cccc(C(=O)c2c(C)cc3ccccn23)c1,active: -93.9%
22,O=C(CNC1CCCCCC1)Nc1ccccc1N1CCCCC1,inactive: 19.6%
